# Measurements reported in the supplement of paper PMC8728848.
# Some of the results follow.
# B1: Erv46-EDTA (Saccharomyces cerevisiae), P39727 (protein)
# chain: MKFLVNVALVFMVVYISYIYAAAPEHHHHHHDYDIPTTENLYFQGAMDSVVTRPQLVVDRDRHAKLELNMDVTFPSMPCDLVNLDIMDDSGEMQLDILDAGFTMSRLNSEGRPVGDATELHVGGNGDGTAPVNNDPNYCGPCYGAKDQSQNENLAQEEKVCCQDCDAVRSAYLEAGWAFFDGKNIEQCEREGYVSKINEHLNEGCRIKGSAQINRIQGNLHFAPGKPYQNAYGHFHDTSLYDKTSNLNFNHIINHLSFGKPIQSHSKLLGNDKRHGGAVVATSPLDGRQVFPDRNTHFHQFSYFAKIVPTRYEYLDNVVIETAQFSATFHSRPLAGGRDKDHPNTLHVRGGIPGMFVFFEMSPLKVINKEQ
# Columns and labels:
# Assay in all cases: glycan array binding signal (z-score within array); higher = stronger binding
# Details in all cases: glycan notation: IUPAC condensed, linker removed
# [1] = target: GlcNAc(b1-3)Gal(b1-4)GlcNAc(b1-3)Gal(b1-4)GlcNAc(b1-3)Gal(b1-4)GlcNAc(b1-3)Gal(b1-4)GlcNAc(b1-2)[GlcNAc(b1-3)Gal(b1-4)GlcNAc(b1-3)Gal(b1-4)GlcNAc(b1-3)Gal(b1-4)GlcNAc(b1-3)Gal(b1-4)GlcNAc(b1-6)]Man(a1-6)[GlcNAc(b1-3)Gal(b1-4)GlcNAc(b1-3)Gal(b1-4)GlcNAc(b1-3)Gal(b1-4)GlcNAc(b1-3)Gal(b1-4)GlcNAc(b1-2)Man(a1-3)]Man(b1-4)GlcNAc(b1-4)[Fuc(a1-6)]GlcNAc
# Procedure, shortened: (§1)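 The binding signal is a Z-score computed within each array. Data were drawn from 3228 arrays in the Consortium for Functional Glycomics database, restricted to those with a known protein sequence. Scores were averaged over arrays of the same protein sequence at different concentrations or buffers, and over linkers, and negative values can be taken as non-binding.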
# [2] = target: GlcNAc(b1-3)Gal(b1-4)GlcNAc(b1-3)Gal(b1-4)GlcNAc(b1-3)GalNAc
# Procedure, shortened: as §1
# [3] = target: GlcNAc(b1-3)Gal(b1-4)GlcNAc(b1-3)GalNAc
# Procedure, shortened: as §1
# [4] = target: GlcNAc(b1-3)Gal(b1-4)GlcNAc(b1-3)[GlcNAc(b1-3)Gal(b1-4)GlcNAc(b1-3)]GalNAc
# Procedure, shortened: as §1
# [5] = target: GlcNAc(b1-3)Gal(b1-4)GlcNAc(b1-6)[Gal(b1-3)]GalNAc
# Procedure, shortened: as §1
# [6] = target: GlcNAc(b1-3)Gal(b1-4)GlcNAc(b1-6)[GlcNAc(b1-3)Gal(b1-3)]GalNAc
# Procedure, shortened: as §1
# [7] = target: GlcNAc(b1-3)Gal(b1-4)GlcNAc(b1-6)[GlcNAc(b1-3)]Gal(b1-4)GlcNAc
# Procedure, shortened: as §1
# [8] = target: GlcNAc(b1-3)GalNAc
# Procedure, shortened: as §1
# [9] = target: GlcNAc(b1-3)Man
# Procedure, shortened: as §1
# [10] = target: GlcNAc(b1-3)[GlcNAc(b1-4)][GlcNAc(b1-6)]GlcNAc
# Procedure, shortened: as §1
# [11] = target: GlcNAc(b1-3)[GlcNAc(b1-6)]Gal(b1-4)GlcNAc
# Procedure, shortened: as §1
# [12] = target: GlcNAc(b1-3)[GlcNAc(b1-6)]GalNAc
# Procedure, shortened: as §1
# [13] = target: GlcNAc(b1-4)Gal(b1-4)GlcNAc
# Procedure, shortened: as §1
# [14] = target: GlcNAc(b1-4)GlcNAc
# Procedure, shortened: as §1
# [15] = target: GlcNAc(b1-4)GlcNAc(b1-4)GlcNAc
# Procedure, shortened: as §1
# [16] = target: GlcNAc(b1-4)GlcNAc(b1-4)GlcNAc(b1-4)GlcNAc(b1-4)GlcNAc
# Procedure, shortened: as §1
# [17] = target: GlcNAc(b1-4)GlcNAc(b1-4)GlcNAc(b1-4)GlcNAc(b1-4)GlcNAc(b1-4)GlcNAc
# Procedure, shortened: as §1
# [18] = target: GlcNAc(b1-4)[GlcNAc(b1-6)]GalNAc
# Procedure, shortened: as §1
# [19] = target: GlcNAc(b1-6)Gal(b1-4)GlcNAc
# Procedure, shortened: as §1
# [20] = target: GlcNAc(b1-6)GalNAc
# Procedure, shortened: as §1
# [21] = target: GlcNAc6S(b1-3)Gal(b1-4)GlcNAc
# Procedure, shortened: as §1
# [22] = target: Kdn(a2-3)Gal(b1-3)GalNAc
# Procedure, shortened: as §1
# [23] = target: Kdn(a2-3)Gal(b1-3)GlcNAc
# Procedure, shortened: as §1
# [24] = target: Kdn(a2-3)Gal(b1-4)Glc
# Procedure, shortened: as §1
# [25] = target: Kdn(a2-3)Gal(b1-4)GlcNAc
# Procedure, shortened: as §1
# [26] = target: Kdn(a2-3)Gal(b1-4)[Fuc(a1-3)]GlcNAc
# Procedure, shortened: as §1
# [27] = target: Kdn(a2-6)Gal(b1-4)GlcNAc
# Procedure, shortened: as §1
# [28] = target: Man(a1-2)Man(a1-2)Man(a1-3)Man
# Procedure, shortened: as §1
# [29] = target: Man(a1-2)Man(a1-2)Man(a1-6)[Man(a1-3)]Man
# Procedure, shortened: as §1
# [30] = target: Man(a1-2)Man(a1-3)Man
# Procedure, shortened: as §1
# [31] = target: Man(a1-2)Man(a1-3)[Man(a1-2)Man(a1-6)]Man
# Procedure, shortened: as §1
# [32] = target: Man(a1-2)Man(a1-3)[Man(a1-2)Man(a1-6)]Man(a1-6)[Man(a1-2)Man(a1-2)Man(a1-3)]Man
# Procedure, shortened: as §1
# [33] = target: Man(a1-2)Man(a1-3)[Man(a1-2)Man(a1-6)]Man(a1-6)[Man(a1-2)Man(a1-2)Man(a1-3)]Man(b1-4)GlcNAc(b1-4)GlcNAc
# Procedure, shortened: as §1
# [34] = target: Man(a1-2)Man(a1-3)[Man(a1-6)]Man(a1-6)[Man(a1-2)Man(a1-3)]Man(b1-4)GlcNAc(b1-4)GlcNAc
# Procedure, shortened: as §1
# [35] = target: Man(a1-2)Man(a1-6)[Man(a1-3)]Man(a1-6)[Man(a1-2)Man(a1-2)Man(a1-3)]Man
# Procedure, shortened: as §1
# [36] = target: Man(a1-2)Man(a1-6)[Man(a1-3)]Man(a1-6)[Man(a1-2)Man(a1-2)Man(a1-3)]Man(b1-4)GlcNAc(b1-4)GlcNAc
# Procedure, shortened: as §1
# [37] = target: Man(a1-3)[Man(a1-6)]Man
# Procedure, shortened: as §1
# [38] = target: Man(a1-3)[Man(a1-6)]Man(a1-6)[Man(a1-2)Man(a1-3)]Man(b1-4)GlcNAc(b1-4)GlcNAc
# Procedure, shortened: as §1
# [39] = target: Man(a1-3)[Man(a1-6)]Man(a1-6)[Man(a1-3)]Man
# Procedure, shortened: as §1
# [40] = target: Man(a1-3)[Man(a1-6)]Man(a1-6)[Man(a1-3)]Man(b1-4)GlcNAc(b1-4)GlcNAc
# Procedure, shortened: as §1
# [41] = target: Man(a1-3)[Man(a1-6)]Man(b1-4)GlcNAc(b1-4)GlcNAc
# Procedure, shortened: as §1
# [42] = target: Man(a1-3)[Man(a1-6)]Man(b1-4)GlcNAc(b1-4)[Fuc(a1-6)]GlcNAc
# Procedure, shortened: as §1
# [43] = target: Man(a1-6)Man
# Procedure, shortened: as §1
# [44] = target: Man(b1-4)GlcNAc
# Procedure, shortened: as §1
# [45] = target: MurNAc(b1-4)GlcNAc
# Procedure, shortened: as §1
binder,measurement,setting,value
B1,glycan array binding signal (z-score),[1],0.589
same,glycan array binding signal (z-score),[2],-0.526
same,glycan array binding signal (z-score),[3],0.565
same,glycan array binding signal (z-score),[4],0.221
same,glycan array binding signal (z-score),[5],-0.042
same,glycan array binding signal (z-score),[6],-0.145
same,glycan array binding signal (z-score),[7],-0.431
same,glycan array binding signal (z-score),[8],0.053
same,glycan array binding signal (z-score),[9],-1.04
same,glycan array binding signal (z-score),[10],-0.123
same,glycan array binding signal (z-score),[11],-0.509
same,glycan array binding signal (z-score),[12],-0.008
same,glycan array binding signal (z-score),[13],-0.698
same,glycan array binding signal (z-score),[14],-0.626
same,glycan array binding signal (z-score),[15],-0.614
same,glycan array binding signal (z-score),[16],-0.678
same,glycan array binding signal (z-score),[17],-0.586
same,glycan array binding signal (z-score),[18],-0.451
same,glycan array binding signal (z-score),[19],-1.08
same,glycan array binding signal (z-score),[20],-0.565
same,glycan array binding signal (z-score),[21],-0.923
same,glycan array binding signal (z-score),[22],-0.11
same,glycan array binding signal (z-score),[23],-0.397
same,glycan array binding signal (z-score),[24],0.032
same,glycan array binding signal (z-score),[25],-0.571
same,glycan array binding signal (z-score),[26],1.21
same,glycan array binding signal (z-score),[27],-0.272
same,glycan array binding signal (z-score),[28],0.434
same,glycan array binding signal (z-score),[29],-0.376
same,glycan array binding signal (z-score),[30],0.221
same,glycan array binding signal (z-score),[31],-0.63
same,glycan array binding signal (z-score),[32],-0.372
same,glycan array binding signal (z-score),[33],-0.41
same,glycan array binding signal (z-score),[34],-0.595
same,glycan array binding signal (z-score),[35],-0.002
same,glycan array binding signal (z-score),[36],-0.511
same,glycan array binding signal (z-score),[37],-0.485
same,glycan array binding signal (z-score),[38],-0.513
same,glycan array binding signal (z-score),[39],-0.559
same,glycan array binding signal (z-score),[40],0.011
same,glycan array binding signal (z-score),[41],-0.148
same,glycan array binding signal (z-score),[42],-0.227
same,glycan array binding signal (z-score),[43],-0.821
same,glycan array binding signal (z-score),[44],0.331
same,glycan array binding signal (z-score),[45],-0.508

# 2 records picked at random from those above, as already listed:
binder,measurement,setting,value
B1,glycan array binding signal (z-score),[27],-0.272
same,glycan array binding signal (z-score),[12],-0.008
